Data taken from PMC10837360.

Target: HA-P85 (p85 regulatory subunit of PI3K)
Test: co-IP; PLC/PRF/5 cells transfected with Flag-PIP4K2A-L, Flag-PIP4K2A-S and HA-P85; IP with anti-HA or anti-Flag, IgG as control; RIPA lysate, magnetic beads, overnight at 4 °C

binding: binds
B1: Flag-PIP4K2A-L (PIP4K2A isoform including exon 5) (enzyme, UniProt P48426 1-406)
chain: MATPGNLGSSVLASKTKTKKKHFVAQKVKLFRASDPLLSVLMWGVNHSINELSHVQIPVMLMPDDFKAYSKIKVDNHLFNKENMPSHFKFKEYCPMVFRNLRERFGIDDQDFQNSLTRSAPLPNDSQARSGARFHTSYDKRYIIKTITSEDVAEMHNILKKYHQYIVECHGITLLPQFLGMYRLNVDGVEIYVIVTRNVFSHRLSVYRKYDLKGSTVAREASDKEKAKELPTLKDNDFINEGQKIYIDDNNKKVFLEKLKKDVEFLAQLKLMDYSLLVGIHDVERAEQEEVECEENDGEEEGESDGTHPVGTPPDSPGNTLNSSPPLAPGEFDPNIDVYGIKCHENSPRKEVYFMAIIDILTHYDAKKKAAHAAKTVKHGAGAEISTVNPEQYSKRFLDFIGHILT

These are yes or no findings as the source states them, for the method shown. Binding seen in cells or lysates may run through a third protein. Binding calls can cover weak binding; strength is not graded here. Where a sequence is shown, tags or fusion partners need not be part of it.
